# Where two headings read alike, the source gives them in different places. Results are given in words; binding and its absence hold for the method and conditions named. Binding seen in cells or lysates may run through a third protein. Here binding means that the protein was enriched with, or labelled near, the bait; the list need not be complete. For some assays here: A no says only that the protein was not detected with the bait.
# Chains of the proteins cited; added tags and fusions are not shown. Lines headed by an entry give the natural chain unless they say otherwise; changes in a name come on top.
# UniProt A8BII4: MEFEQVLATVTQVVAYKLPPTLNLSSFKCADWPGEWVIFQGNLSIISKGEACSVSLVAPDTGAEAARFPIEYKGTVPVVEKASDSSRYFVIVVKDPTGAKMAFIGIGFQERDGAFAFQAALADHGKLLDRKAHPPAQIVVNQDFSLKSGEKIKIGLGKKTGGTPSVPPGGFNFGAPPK
# UniProt A8B343: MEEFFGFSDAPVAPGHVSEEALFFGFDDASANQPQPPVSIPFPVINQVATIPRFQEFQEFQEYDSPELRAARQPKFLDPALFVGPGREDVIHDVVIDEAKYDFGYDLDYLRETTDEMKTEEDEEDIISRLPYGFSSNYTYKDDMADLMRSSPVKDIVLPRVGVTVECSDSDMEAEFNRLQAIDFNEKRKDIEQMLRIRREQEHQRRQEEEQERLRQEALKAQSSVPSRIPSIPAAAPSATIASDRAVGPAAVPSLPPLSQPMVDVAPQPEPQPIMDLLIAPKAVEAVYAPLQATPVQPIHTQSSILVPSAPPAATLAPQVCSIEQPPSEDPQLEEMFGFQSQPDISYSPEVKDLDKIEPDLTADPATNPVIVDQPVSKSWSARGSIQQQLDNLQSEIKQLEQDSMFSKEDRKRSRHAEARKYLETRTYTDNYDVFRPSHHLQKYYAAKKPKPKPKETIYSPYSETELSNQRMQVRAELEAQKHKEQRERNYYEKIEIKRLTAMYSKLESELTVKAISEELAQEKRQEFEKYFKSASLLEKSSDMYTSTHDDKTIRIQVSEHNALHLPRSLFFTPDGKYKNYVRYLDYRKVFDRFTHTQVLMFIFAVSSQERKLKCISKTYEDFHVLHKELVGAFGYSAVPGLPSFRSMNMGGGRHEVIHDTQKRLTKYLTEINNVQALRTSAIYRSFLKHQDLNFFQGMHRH
# UniProt A8B341: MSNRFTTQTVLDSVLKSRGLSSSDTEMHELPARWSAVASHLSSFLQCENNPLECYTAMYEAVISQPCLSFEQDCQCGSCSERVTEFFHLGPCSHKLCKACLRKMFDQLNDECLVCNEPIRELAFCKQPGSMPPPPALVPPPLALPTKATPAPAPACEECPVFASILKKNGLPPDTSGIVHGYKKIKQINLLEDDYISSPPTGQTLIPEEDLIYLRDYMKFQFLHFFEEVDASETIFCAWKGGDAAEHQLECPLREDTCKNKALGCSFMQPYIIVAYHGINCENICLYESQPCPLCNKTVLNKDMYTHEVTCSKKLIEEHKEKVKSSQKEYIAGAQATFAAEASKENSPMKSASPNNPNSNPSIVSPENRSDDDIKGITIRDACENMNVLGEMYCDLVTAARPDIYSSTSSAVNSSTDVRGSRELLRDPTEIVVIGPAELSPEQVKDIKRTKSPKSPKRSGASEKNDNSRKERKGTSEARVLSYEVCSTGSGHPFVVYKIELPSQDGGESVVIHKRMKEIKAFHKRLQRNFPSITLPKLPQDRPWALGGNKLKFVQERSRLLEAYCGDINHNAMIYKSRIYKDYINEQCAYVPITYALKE
# UniProt D3KH98: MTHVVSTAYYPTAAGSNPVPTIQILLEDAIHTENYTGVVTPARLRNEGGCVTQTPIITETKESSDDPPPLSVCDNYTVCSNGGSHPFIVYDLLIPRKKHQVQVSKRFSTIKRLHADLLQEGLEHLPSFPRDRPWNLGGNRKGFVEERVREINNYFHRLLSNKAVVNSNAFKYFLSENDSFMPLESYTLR
# UniProt A8BDY5: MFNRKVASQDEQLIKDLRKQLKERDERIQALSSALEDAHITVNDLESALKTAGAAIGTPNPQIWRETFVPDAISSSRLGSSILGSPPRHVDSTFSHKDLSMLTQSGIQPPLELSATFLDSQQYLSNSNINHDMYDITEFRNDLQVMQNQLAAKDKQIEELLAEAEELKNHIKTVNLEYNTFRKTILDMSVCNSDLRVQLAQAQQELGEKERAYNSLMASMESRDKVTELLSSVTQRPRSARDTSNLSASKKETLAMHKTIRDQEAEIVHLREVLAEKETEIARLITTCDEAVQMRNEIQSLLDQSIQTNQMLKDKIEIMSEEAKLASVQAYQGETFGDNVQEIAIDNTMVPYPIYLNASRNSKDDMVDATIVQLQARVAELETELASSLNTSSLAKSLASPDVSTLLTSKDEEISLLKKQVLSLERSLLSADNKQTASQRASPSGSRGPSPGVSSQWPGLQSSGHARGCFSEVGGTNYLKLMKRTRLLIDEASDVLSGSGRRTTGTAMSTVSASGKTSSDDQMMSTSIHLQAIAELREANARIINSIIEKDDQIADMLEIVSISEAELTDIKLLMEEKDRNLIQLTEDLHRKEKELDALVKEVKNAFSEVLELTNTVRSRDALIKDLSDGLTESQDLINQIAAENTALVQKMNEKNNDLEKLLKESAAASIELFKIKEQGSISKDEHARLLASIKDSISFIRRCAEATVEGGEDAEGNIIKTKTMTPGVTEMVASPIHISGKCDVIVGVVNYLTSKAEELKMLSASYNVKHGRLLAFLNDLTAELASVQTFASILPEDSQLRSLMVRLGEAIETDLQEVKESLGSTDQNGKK
# UniProt A8B820: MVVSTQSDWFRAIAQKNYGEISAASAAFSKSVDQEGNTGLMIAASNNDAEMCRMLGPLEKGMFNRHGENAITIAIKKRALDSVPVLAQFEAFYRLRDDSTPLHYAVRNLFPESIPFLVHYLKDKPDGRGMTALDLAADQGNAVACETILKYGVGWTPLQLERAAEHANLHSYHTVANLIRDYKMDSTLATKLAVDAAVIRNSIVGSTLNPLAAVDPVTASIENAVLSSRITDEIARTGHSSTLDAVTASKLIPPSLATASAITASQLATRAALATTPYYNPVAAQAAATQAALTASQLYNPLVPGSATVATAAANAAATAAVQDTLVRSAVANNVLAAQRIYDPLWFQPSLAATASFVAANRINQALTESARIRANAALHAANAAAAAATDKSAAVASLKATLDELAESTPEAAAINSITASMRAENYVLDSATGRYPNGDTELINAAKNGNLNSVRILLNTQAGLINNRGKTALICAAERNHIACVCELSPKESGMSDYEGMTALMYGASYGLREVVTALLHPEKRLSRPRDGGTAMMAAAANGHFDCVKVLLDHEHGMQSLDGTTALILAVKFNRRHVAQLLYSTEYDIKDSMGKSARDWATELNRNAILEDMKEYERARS
# UniProt A8B6P4: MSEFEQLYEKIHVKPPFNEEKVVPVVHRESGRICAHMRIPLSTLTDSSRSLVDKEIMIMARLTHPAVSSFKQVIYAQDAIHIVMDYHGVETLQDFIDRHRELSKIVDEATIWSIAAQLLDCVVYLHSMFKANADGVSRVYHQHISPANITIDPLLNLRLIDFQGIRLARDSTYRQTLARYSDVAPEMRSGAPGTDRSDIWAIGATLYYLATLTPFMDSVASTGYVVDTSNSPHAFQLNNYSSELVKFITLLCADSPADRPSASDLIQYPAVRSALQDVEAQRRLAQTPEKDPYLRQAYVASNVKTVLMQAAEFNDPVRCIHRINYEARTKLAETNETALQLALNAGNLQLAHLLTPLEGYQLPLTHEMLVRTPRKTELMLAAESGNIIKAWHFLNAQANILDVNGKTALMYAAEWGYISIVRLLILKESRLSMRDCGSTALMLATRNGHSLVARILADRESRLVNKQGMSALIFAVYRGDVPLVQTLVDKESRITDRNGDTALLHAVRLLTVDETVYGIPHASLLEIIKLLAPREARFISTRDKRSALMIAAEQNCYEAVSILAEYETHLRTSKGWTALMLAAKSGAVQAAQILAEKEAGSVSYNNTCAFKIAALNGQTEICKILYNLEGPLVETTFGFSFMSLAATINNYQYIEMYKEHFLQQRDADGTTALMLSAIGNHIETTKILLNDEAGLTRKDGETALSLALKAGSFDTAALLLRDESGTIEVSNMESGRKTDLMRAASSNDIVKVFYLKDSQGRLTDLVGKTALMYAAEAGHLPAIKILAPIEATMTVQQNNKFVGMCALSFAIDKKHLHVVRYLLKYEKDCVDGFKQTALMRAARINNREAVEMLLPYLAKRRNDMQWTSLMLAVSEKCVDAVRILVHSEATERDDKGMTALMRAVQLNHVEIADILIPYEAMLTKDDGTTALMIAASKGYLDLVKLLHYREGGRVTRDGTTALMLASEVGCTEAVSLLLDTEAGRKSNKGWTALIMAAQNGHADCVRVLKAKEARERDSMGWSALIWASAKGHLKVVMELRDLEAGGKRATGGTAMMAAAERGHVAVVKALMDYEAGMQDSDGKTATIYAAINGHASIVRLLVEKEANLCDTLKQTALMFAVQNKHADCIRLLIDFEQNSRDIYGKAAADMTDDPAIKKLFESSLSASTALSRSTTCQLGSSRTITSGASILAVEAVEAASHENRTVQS
# UniProt A8BH24: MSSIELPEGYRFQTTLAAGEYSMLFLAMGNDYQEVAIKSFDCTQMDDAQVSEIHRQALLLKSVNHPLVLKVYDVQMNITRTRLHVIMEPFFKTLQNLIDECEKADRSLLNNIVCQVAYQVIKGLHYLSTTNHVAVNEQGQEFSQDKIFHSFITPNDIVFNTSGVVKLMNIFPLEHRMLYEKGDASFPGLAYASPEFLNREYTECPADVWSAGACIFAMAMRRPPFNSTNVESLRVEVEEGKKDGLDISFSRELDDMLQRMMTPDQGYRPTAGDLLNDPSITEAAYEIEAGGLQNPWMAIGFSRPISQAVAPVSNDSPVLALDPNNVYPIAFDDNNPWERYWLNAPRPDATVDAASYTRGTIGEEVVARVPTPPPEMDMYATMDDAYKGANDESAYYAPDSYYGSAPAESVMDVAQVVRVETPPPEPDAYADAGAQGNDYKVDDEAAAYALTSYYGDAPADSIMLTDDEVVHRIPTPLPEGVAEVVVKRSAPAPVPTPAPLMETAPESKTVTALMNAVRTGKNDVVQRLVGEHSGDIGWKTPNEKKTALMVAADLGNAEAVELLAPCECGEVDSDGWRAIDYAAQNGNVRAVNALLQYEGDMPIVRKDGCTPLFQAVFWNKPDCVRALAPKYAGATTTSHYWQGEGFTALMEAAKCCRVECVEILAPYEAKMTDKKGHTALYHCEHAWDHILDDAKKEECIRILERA
# UniProt A8BAR6: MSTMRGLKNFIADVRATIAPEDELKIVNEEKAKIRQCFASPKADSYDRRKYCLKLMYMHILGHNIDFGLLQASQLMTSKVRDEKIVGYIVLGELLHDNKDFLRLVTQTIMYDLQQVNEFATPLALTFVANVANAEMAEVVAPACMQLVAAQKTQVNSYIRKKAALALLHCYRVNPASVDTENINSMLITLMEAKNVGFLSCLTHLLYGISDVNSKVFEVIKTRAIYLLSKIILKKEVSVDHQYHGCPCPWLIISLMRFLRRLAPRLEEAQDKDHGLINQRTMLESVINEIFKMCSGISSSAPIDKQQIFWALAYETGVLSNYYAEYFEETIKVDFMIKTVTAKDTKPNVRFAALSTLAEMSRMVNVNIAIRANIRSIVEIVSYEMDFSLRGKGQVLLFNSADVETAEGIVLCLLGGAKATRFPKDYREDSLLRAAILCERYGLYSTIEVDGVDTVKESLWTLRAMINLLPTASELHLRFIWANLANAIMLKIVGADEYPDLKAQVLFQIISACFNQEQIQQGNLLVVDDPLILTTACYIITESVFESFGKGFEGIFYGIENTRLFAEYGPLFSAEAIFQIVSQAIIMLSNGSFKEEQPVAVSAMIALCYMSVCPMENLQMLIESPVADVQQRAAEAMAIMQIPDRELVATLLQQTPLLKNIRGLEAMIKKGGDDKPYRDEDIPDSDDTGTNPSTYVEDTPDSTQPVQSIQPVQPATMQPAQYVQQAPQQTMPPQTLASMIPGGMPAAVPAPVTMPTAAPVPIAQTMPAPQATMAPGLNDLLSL
# UniProt E2RTT5: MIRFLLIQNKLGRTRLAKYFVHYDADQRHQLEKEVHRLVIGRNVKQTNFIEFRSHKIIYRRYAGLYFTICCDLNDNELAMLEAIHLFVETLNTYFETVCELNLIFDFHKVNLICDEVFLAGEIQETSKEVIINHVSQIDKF
# UniProt A8B2Y5: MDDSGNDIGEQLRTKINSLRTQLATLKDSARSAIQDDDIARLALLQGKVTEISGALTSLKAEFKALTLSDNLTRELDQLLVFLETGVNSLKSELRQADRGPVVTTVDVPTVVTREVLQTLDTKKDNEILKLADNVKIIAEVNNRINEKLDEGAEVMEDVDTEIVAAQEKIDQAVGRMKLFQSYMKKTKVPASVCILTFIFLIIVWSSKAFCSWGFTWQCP
# UniProt A8BKZ4: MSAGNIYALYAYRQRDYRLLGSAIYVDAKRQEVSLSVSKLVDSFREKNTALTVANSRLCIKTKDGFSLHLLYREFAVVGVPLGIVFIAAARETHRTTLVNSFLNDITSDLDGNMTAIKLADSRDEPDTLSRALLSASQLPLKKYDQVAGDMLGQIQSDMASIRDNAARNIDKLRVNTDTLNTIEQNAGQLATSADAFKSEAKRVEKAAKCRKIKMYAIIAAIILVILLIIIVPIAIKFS
# Key:
# Assay in all cases: affinity purification with mass spectrometry; antibody-based affinity co-IP with limited cross-linking from transgenic G. lamblia trophozoites expressing the epitope-tagged full-length bait; protein input 0.8 mg/ml total protein; gel lanes analysed by MS; hits filtered against a control co-IP from non-transgenic wild-type parasites (Scaffold4; high stringency 95_2_95, low stringency 95_2_50, FDR 0%)
# [1] = molecular target: GlFYVE (GL50803_16653), epitope-tagged full-length reporter (Giardia lamblia) (UniProt A8BDZ8)
# [2] = molecular target: GlNECAP1 (GL50803_17195), epitope-tagged full-length reporter (Giardia lamblia) (UniProt A8BII4)
# [3] = molecular target: GlPXD1 (GL50803_7723), epitope-tagged full-length reporter (Giardia lamblia) (UniProt A8B343)
# [4] = molecular target: GlPXD2 (GL50803_16595), epitope-tagged full-length reporter (Giardia lamblia) (UniProt A8B344)
# [5] = molecular target: GlPXD3 (GL50803_16596), epitope-tagged full-length reporter (Giardia lamblia) (UniProt A8B341)
# [6] = molecular target: GlPXD4 (GL50803_42357), epitope-tagged full-length reporter (Giardia lamblia) (UniProt A8B322)
# [7] = molecular target: GlPXD6 (GL50803_24488), epitope-tagged full-length reporter (Giardia lamblia) (UniProt D3KH98)
# [8] = molecular target: GlFYVE (GL50803_16653), epitope-tagged full-length reporter (Giardia lamblia) (UniProt A8BDZ8); remark: listed apart in the source
# [9] = molecular target: GlNECAP1 (GL50803_17195), epitope-tagged full-length reporter (Giardia lamblia) (UniProt A8BII4); remark: listed apart in the source
# [10] = molecular target: GlPXD1 (GL50803_7723), epitope-tagged full-length reporter (Giardia lamblia) (UniProt A8B343); remark: listed apart in the source
# [11] = molecular target: GlPXD2 (GL50803_16595), epitope-tagged full-length reporter (Giardia lamblia) (UniProt A8B344); remark: listed apart in the source
# [12] = molecular target: GlPXD3 (GL50803_16596), epitope-tagged full-length reporter (Giardia lamblia) (UniProt A8B341); remark: listed apart in the source
# [13] = molecular target: GlPXD4 (GL50803_42357), epitope-tagged full-length reporter (Giardia lamblia) (UniProt A8B322); remark: listed apart in the source
# [14] = molecular target: GlPXD6 (GL50803_24488), epitope-tagged full-length reporter (Giardia lamblia) (UniProt D3KH98); remark: listed apart in the source
molecule,measurement,setting,value
G. lamblia clathrin heavy chain (GlCHC) (from UniProt A8B515),binding,[1],binds
same,binding,[2],binds
same,binding,[3],binds
same,binding,[4],binds
same,binding,[5],binds
same,binding,[6],binds
same,binding,[7],binds
G. lamblia putative clathrin light chain Gl4259 (GlCLC) (from UniProt A8BHA7),binding,[3],binds
same,binding,[4],binds weakly
"GL50803_16811 (Gl16811), tentatively annotated as a ZipA protein (from UniProt A8BDY5)",binding,[5],binds
"GL50803_17060 (Gl17060), ankyrin-domain carrying protein (from UniProt A8B820)",binding,[5],binds
"GL50803_87677 (Gl87677), annotated as a NEK kinase (from UniProt A8B6P4)",binding,[5],binds
"Gl9605, dynamin-like protein (from UniProt A0A644F0H9)",binding,[5],binds weakly
"Gl15411, pseudokinase (predicted inactive NEK kinase) (from UniProt A8BH24)",binding,[5],binds
"Gl16717, StAR-related lipid-transfer protein (from UniProt A8BE80)",binding,[5],binds
same,binding,[7],binds
GlAP2-α (from UniProt A8BAR6),binding,[2],binds
same,binding,[3],binds weakly
same,binding,[4],binds
same,binding,[5],binds
GlAP2-β (from UniProt A8B9U8),binding,[2],binds
same,binding,[3],binds
same,binding,[4],binds
same,binding,[5],binds
same,binding,[6],binds weakly
same,binding,[7],binds
GlAP2-μ (from UniProt E2RTN5),binding,[2],binds
same,binding,[3],binds
same,binding,[4],binds
GlAP2-σ (from UniProt E2RTT5),binding,[4],binds
"GlFYVE (GL50803_16653), epitope-tagged full-length reporter (from UniProt A8BDZ8)",binding,[2],binds
same,binding,[7],binds weakly
"GlNECAP1 (GL50803_17195), epitope-tagged full-length reporter (from UniProt A8BII4)",binding,[1],binds
same,binding,[4],binds weakly
GlNSF (GL50803_114776) (from UniProt A0A644F2H1),binding,[5],binds
"GlPXD2 (GL50803_16595), epitope-tagged full-length reporter (from UniProt A8B344)",binding,[2],binds
same,binding,[3],binds weakly
same,binding,[6],binds weakly
same,binding,[7],binds
"GlPXD3 (GL50803_16596), epitope-tagged full-length reporter (from UniProt A8B341)",binding,[7],binds weakly
"GlPXD4 (GL50803_42357), epitope-tagged full-length reporter (from UniProt A8B322)",binding,[4],binds weakly
"GlPXD6 (GL50803_24488), epitope-tagged full-length reporter (from UniProt D3KH98)",binding,[1],binds
Glepsin (GL50803_3256) (from UniProt A8BIK9),binding,[1],no binding
same,binding,[2],no binding
same,binding,[3],no binding
same,binding,[4],no binding
same,binding,[5],no binding
same,binding,[6],no binding
same,binding,[7],no binding
SNARE protein Gl7309 (from UniProt E2RTQ4),binding,[5],binds
predicted SNARE protein GL50803_10013 (from UniProt A8B2Y5),binding,[4],binds
predicted SNARE protein GL50803_14469 (from UniProt A8BKZ4),binding,[4],binds
protein GL50803_103709 carrying a predicted N-terminal BRO domain (from UniProt A8B3S4),binding,[5],binds
putative SNARE protein GL50803_5785 (from UniProt A8B2J8),binding,[4],binds
same,binding,[6],binds
"G. lamblia dynamin-like protein GlDRP (protein, UniProt E2RU04 1-732) MSQIDKLIPIVNSLQDVFSAIGQDKTNIDLPQITVVGSQSAGKSSVLEAVCGRDVLPRSAGICTRRPLILQLIPTKPGQFVKDEKGKTYEEWGEFLHTKDKKFVHYQEICKEIVAETDRVTGGTLNVSPLPIRLKLFSPTVVPLTLVDLPGLVKNALPGQPADIDVQIKKCVYEYIQKPNAVILAVSAANADLATSDALQAAINCDPKGDRSVGVLTKIDIVDKGTEATVVSILRNEVHYFKLGWIAVMNRSQKDIDAQKTIAKHLHDEEEFFRTHDYYKPLAAQSGAKYLARRLNQVLINHIQIVLPDLKMKVHLQLDKYSRELASYGQHLEGRAEMERALLGLISSYEKEYKAILDGSSAGASKNELYGGARISYIFQSVLPKMFDTISIQEILNGEDVRTLIRNSSGTRSSLFLSESAFELLVQKVVRRLEGPCKHCLQLVKAELISIAKSIPTPEMKKYRRLCNELVNTCIKLINDLTMPTGKFLQDLIHSELCYINTLHPDFVASQEFKGHIDGQRNMANLDVSNQGFGESNFGGPGGPGMGGFPPGGPGGPGGPGGPGGPPGGPGMNRGPGGPPGAPGGPGGPMNRGPGGPGGPGGPGGPGPQQFNESVPEKIKAQGPLSEAEKLGVDLIPRLMSAYYRVIRKKIEDSVPKACIAFLVKASMNQLQEVLVRNLYSGDKIEDLLCEDPSIKEKRVACRELVDVMQRASNILDKIGNIRNVEDLAKKD",binding,[8],binds
same,binding,[9],binds
same,binding,[10],binds weakly
same,binding,[11],binds
same,binding,[12],binds weakly
same,binding,[13],binds
same,binding,[14],binds

# Source: PMC7058353
